# Source: PubChem BioAssay AID1259415 (National Center for Advancing Translational Sciences (NCATS), 2018)
# Where “and” joins values, the source holds several entries; their conditions need not be identical. Equal entries are not always repeated. Hit rate of the full screen: of about 410,000 compounds, about 18,000 (4.4%) were called active. Inconclusive results, whose numbers are uncertain, are shown with a selection of clear calls. No stated cut-off is given here; in the data, active means activity change below about -60%; inconclusive means no clear call, values can overlap the other calls; inactive means above about -39%.
# Assay: qHTS Assay for inhibitors of the human cytomegalovirus (HCMV)
# Settings: HFF cells, HCMV-luciferase reporter, 72 h; at 57.5 µM; hits give low values
# Procedure, shortened: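 Compounds were evaluated in HFFs infected with an HCMV luciferase reporter virus (MOI 1 PFU/cell). Luciferase in lysates collected 72 h post infection served as the replication measure.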
# On the % scale 0 is the no-effect control and ±100 the full control effect.
row,SMILES,"activity change, negative = inhibition"
1,O=C(CCCOc1ccc(Cl)cc1)Nc1cccc(C(=O)O)c1,inconclusive: -40.9%
2,CCN(C(=O)CCc1nnc2ccc(N3CCC4(CC3)OCCO4)nn12)c1ccccc1,inconclusive: -44.1%
3,Cc1cccc(N2CCN(S(=O)(=O)c3csc(C(N)=O)c3)CC2)c1C,inconclusive: -58.7%
4,Cc1cccc(NC(=O)CSc2nc(-c3ccco3)cc(C(F)(F)F)n2)c1C,inactive: 1.83%
5,CCC(Cc1ccccc1)NC(=O)C1CCN(S(=O)(=O)c2ccc3c(c2)CC(C)N3C(C)=O)CC1 (centres undefined),inconclusive: -40.1%
6,Cc1cccc(S(=O)(=O)Nc2ccc(-n3c(C)nc4ccccc4c3=O)cc2)c1,inactive: -38.5%
7,CCN1CCN(CCCNC(=O)c2ccc(/C=C3/Sc4ccccc4N(Cc4ccccc4F)C3=O)cc2)CC1,inconclusive: -54.3%
8,Cc1cc(C(=O)Nn2c(C3CCCCC3)nc3ccccc3c2=O)ccc1[N+](=O)[O-],inconclusive: -43.6%
9,CC(C)C(=O)Nc1ccc(NC(=O)c2ccccc2Cl)nc1,inactive: 57.3%
10,Cc1ccccc1-c1nn(-c2ccc(F)cc2F)cc1CNCCCN(C)C,inconclusive: -47.9%
11,CC1(C)Cc2c(C#N)c(SCCOc3ccccc3)nc(N3CCOCC3)c2CO1,inactive: 86.3%
12,COC(=O)c1c(C)[nH]c(C(=O)CSc2ccc(Cl)cc2)c1C,inactive: 21%
13,COc1cccc(-c2nc3ccc(N4CCN(C)CC4)cc3[nH]2)c1,active: -68.2%
14,COc1cccc(C(=O)NC2CCN(C(=O)N3c4ccccc4Sc4ccccc43)CC2)c1,inconclusive: -51.7%
15,O=C(Cn1cnc(S(=O)(=O)N2CCCC2)c1)Nc1cccc(Br)c1,inconclusive: -41.9%
16,S=C1NCN(CCc2ccccc2)CN1Cc1ccccc1,active: -62.3%
17,COc1ccc(NC(=O)COC(=O)c2c3c(nc4ccccc24)CCCC3)cc1Cl,inconclusive: -55.4%
18,Nc1ncnc2c1C(c1ccccc1)c1c(ccc3ccccc13)O2 (centres undefined),inconclusive: -51.2%
19,CCc1ccc(-c2cc(C)no2)cc1S(=O)(=O)N1CCOc2ccc(C)cc21,inconclusive: -53.1%
20,O=C(CCNC(=O)N1CC(=O)Nc2ccccc21)Nc1ccc(Br)cc1F,inconclusive: 0%
21,COc1ccccc1NC(=O)c1cnc2c(-c3ccccc3)c(C)nn2c1C,inconclusive: -43.3%
22,Cc1c(CCO)c(=O)n(-c2ccccc2)n1S(=O)(=O)c1ccc([N+](=O)[O-])cc1,inconclusive: -51.1%
23,O=C(CNc1cc(S(=O)(=O)N2CCOCC2)ccc1N1CCCC1)Nc1ccc(Cl)cc1,inactive: 21.5%
24,Cc1ccc2cc(NC(=O)c3ccccc3C)ccc2n1,active: -99.8%
25,COc1ccc(C)cc1S(=O)(=O)N1CCCC(C(=O)N2CCOCC2)C1 (centres undefined),inactive: 13.6%
26,Oc1cccc(/C=N/Nc2cccc3cccnc23)c1,inactive: 15.1%
27,Cc1cc(C(=O)Nc2cccnc2)no1,inactive: -1.32%

# Reprinted at random: 2 records from the list.
row,SMILES,"activity change, negative = inhibition"
2,CCN(C(=O)CCc1nnc2ccc(N3CCC4(CC3)OCCO4)nn12)c1ccccc1,inconclusive: -44.1%
4,Cc1cccc(NC(=O)CSc2nc(-c3ccco3)cc(C(F)(F)F)n2)c1C,inactive: 1.83%

# Continuation:

row,SMILES,"activity change, negative = inhibition"
1,COc1ccc(-n2cnc3cc(C(=O)NC4CCCC4)ccc32)cc1,inconclusive: -59.7% and inconclusive: -42.2%
2,COc1ccc(Nc2nc(N)nc(SCc3nnc(C)s3)n2)cc1,inactive: 109%
3,CCOCCCNC(=S)N1CCCN(c2nc3cc(C)c(C)cc3cc2C#N)CC1,inconclusive: -47.9%
4,c1ccc2c(CSc3ncnc4nc[nH]c34)cccc2c1,active: -69.5%
5,COc1cccc(CN(C)C(=O)c2cccc(S(=O)(=O)N3CCN(c4ccccc4)CC3)c2)c1OC,active: -70.4%
6,O=c1cc(O)n(Cc2ccc(F)cc2)c(=O)[nH]1,inconclusive: -49.9%
7,Cc1ccc(S(=O)(=O)Nc2cc(C(C)C)c(O)cc2C)cc1,inconclusive: -45%
8,CC1(C(=O)Nc2ccc(Cl)c(C(F)(F)F)c2)Cc2c(-c3ccc(C(N)=O)cc3)ccnc2O1 (centres undefined),active: -61.7%
9,CCC(c1nnnn1Cc1cccs1)N1CCN(c2nc3ccccc3s2)CC1 (centres undefined),inconclusive: -50.8%
10,O=C(c1ccc(Cl)cc1)c1c[nH]c(C(=O)NNc2ccccc2)c1,inactive: -18.9%
11,Cc1c(C(=O)OC(C)C)sc(NC(=O)C2c3ccccc3Oc3ccccc32)c1C(=O)OC(C)C,inactive: -2.7%
12,COCCNC(=O)c1cccc(NC(=O)C2=C(C)OCCS2)c1,inactive: -39.9%
13,O=C(Cc1cccs1)N1CCN=C1SCc1cccc(F)c1,inconclusive: -43.2%
14,CC(C)C[C@H]1CNC(=S)N1CC1CCCN1C[C@H](CC(C)C)N1C[C@H](Cc2ccccc2)N(CC2CCCCCC2)C1=S (some centres undefined),inactive: -16.5%
15,CCC(NC(=O)c1cccc(Cn2cc([N+](=O)[O-])cn2)c1)c1ccc(C(C)C)cc1 (centres undefined),inactive: -19.9%
16,COc1ccccc1-c1ccc(SCc2cccc(C)c2)nn1,inconclusive: -46.5%
17,Cc1nn(CC(=O)NCCCN2CCC(N3CCCCC3)CC2)c(=O)c2cc(-c3ccccc3)nn12,inconclusive: -46.6%
18,CCCOc1nc(N)c(C#N)c(-c2ccccc2F)c1C#N,inactive: -21.1%
19,N#CCc1ccc(Oc2ncc(C(F)(F)F)cc2Cl)cc1,inconclusive: -57.4%
20,COc1ccccc1NC(=O)COc1ccc(C(=O)NC2CCCc3ccccc32)cc1OC (centres undefined),inconclusive: -40.2%
21,O=C(Nc1cccc(S(=O)(=O)N2CCCC2)c1)c1cccnc1,inactive: 13.9%
22,Cc1c(C(=O)C(=O)N2c3ccc(F)cc3CCC2C)c2ccccc2n1C (centres undefined),inconclusive: -41.3%
23,COc1ccc(-n2nc(C(=O)NCC(=O)NCCCN3CCN(C)CC3)c3ccccc3c2=O)cc1,inactive: -23%
24,CCN1CCN(Cc2ccc(NC(=O)c3ccc(C)c(NC(=O)c4cc(-c5ccc(Br)cc5)n[nH]4)c3)cc2C(F)(F)F)CC1,inconclusive: -56.6%
25,O=C(Nc1ccc2c(c1)CCCN2C(=O)c1cccs1)c1ccccc1,inactive: -23.5% and inactive: -35.7%
26,O=C(NCc1cccnc1)C1CCC(c2ccc(Cl)cc2)CC1 (centres undefined),inconclusive: -50.3%
27,COc1ccccc1NC(=S)NCC1CCCCC1,active: -66.3%
